From publication PMC8558168, “Reverse chemical ecology in a moth: machine learning on odorant receptors identifies new behaviorally active agonists” (Cellular and Molecular Life Sciences: CMLS, 2021)

Test system: T1, SlitOR25
T1 construct: gene OR25; full-length UAS transgene driven by Or22a-Gal4 in Drosophila melanogaster Δhalo ab3A empty neurons; endogenous fly Orco; with Odorant receptor coreceptor (Drosophila melanogaster, endogenous)
Experiment: single sensillum recording, Drosophila ab3A neurons
Assay type: cell-based, Spodoptera littoralis
Settings: agonist; 10 μL of 10^-2 dilution in paraffin oil on filter paper, 500 ms pulse

Row | Compound | SSR response at 10^-2 dilution [spikes.s^-1]
1 | CCCCCC(C)O (centres unmarked) [2-heptanol] | > 100
2 | N#CCc1ccccc1 [benzyl cyanide] | > 100

Test system: T2, SlitOR24
T2 construct: gene OR24; full-length UAS transgene driven by Or22a-Gal4 in Drosophila melanogaster Δhalo ab3A empty neurons; endogenous fly Orco; with Odorant receptor coreceptor (Drosophila melanogaster, endogenous)
Experiment: as above
Assay type: cell-based, Spodoptera littoralis
Settings: agonist; 10 μL of 10^-2 dilution in paraffin oil on filter paper, 500 ms pulse

Row | Compound | SSR response at 10^-2 dilution [spikes.s^-1]
3 | CCCCCO [1-pentanol] | > 100
4 | CCCCCC(C)O (centres unmarked) [2-heptanol] | > 100
5 | CCCCC(C)O (centres unmarked) [2-hexanol] | > 100
6 | OCCc1ccccc1 [2-phenylethanol] | > 100
7 | CC/C=C/CCO [(E)-3-hexenol] | > 100
8 | CCC/C=C\CO [(Z)-2-hexenol] | > 100
